# Primary screen of a compound library

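Whole-cell assay for inhibitors of Mycobacterium tuberculosis growth, labelled Cornell in the record; the read-out is not stated. The concentration is filed as 10 mM, unlikely as a test dose, so the dose is not known. Higher means stronger inhibition (inferred from two other growth screens of the library). Of about 53,000 compounds tested this way, about 900 (1.7%) reached 50% or more in at least one test.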

The filed quantity is “Percent Effect” (%). The record does not define 0% and 100%; most values in the screen are far below 50% and negative numbers occur (in some assays of this library far below -100). This is an unselected part of the compounds tested.

SMILES | Percent Effect
CC(C)c1nc(C2CCCN2CCc2ccccn2)no1 (stereo not drawn) | -3.374
Cc1cc(C(=O)Nc2ccc3c(ccn3CCN3CCOCC3)c2)on1 | -3.056
CC(C)Nc1nc(O)cc(C2CC(=O)N(Cc3ccccn3)C2)n1.Cl (stereo not drawn) | 19.17
O=c1c(CN2CCSCC2)coc(O)c1CN1CCCC1 | -4.031
COc1cccc([C@@H]2CCN(Cc3cccc(C)n3)C[C@H]2O)c1 | -6.615
Nc1nc(C2CCN(C(=O)c3cnccn3)CC2)cs1 | -33.08
CN[C@@H](C)C(=O)N(Cc1cccc(C)c1)Cc1ccccc1OC | 24.73
Cn1nc(N2CCCC(C(=O)Nc3nc4ccccc4s3)C2)ccc1=O (stereo not drawn) | 7.974
CC(C)NC(=O)N1CCC2(COCc3cnc(N4CCOCC4)nc32)C1 (stereo not drawn) | 15.72
O=C(Nc1ccccc1)C1CN(CC2CC2)CC12CCOCC2.O=C(O)C(F)(F)F (stereo not drawn) | 12.76
CCC(C)NC(=O)CCc1ccc(OCC(F)(F)F)c(OC)c1 (stereo not drawn) | 3.445
CC(=O)N1CCC2(CC1)C(=O)N(CC1CCN(C)CC1)c1ccccc12.O=C(O)C(F)(F)F | 8.064
COc1c(CNC2CCCN(c3ncccn3)C2)c(C(C)C)nn1C (stereo not drawn) | -22.42
O=C(c1cnccn1)N1CC(S(=O)(=O)c2ccc(Cl)cc2)C1 | 17.17
CCN(C(c1cccnc1)c1ccc2c(c1)CCO2)S(C)(=O)=O (stereo not drawn) | 21.4
Cc1cc(C)n(Cc2ccc(-c3noc(C(=O)NC[C@@H](C)O)n3)cc2)n1 | -1.568
CN1CCCC(c2cncc(-c3cccc(C(F)(F)F)c3)n2)C1 (stereo not drawn) | 51.88
O=C(O)c1cc2c(nc1-c1ccncc1)CCN(Cc1ccoc1)CC2 | -7.83
Cc1noc(C)c1-c1n[nH]c2c1CN(S(=O)(=O)c1cccs1)CC2 | 15.51
Cc1ccc(N2CC3(COCCN(Cc4cccnc4)C3)OCC2=O)s1.O=C(O)C(F)(F)F.O=C(O)C(F)(F)F (stereo not drawn) | 3.488
Cc1cc(C)n(C2CCN(S(=O)(=O)N3CCC(C)CC3)CC2)n1 | 1.235
CC(C(=O)Nc1cccc(Cl)c1)N1CCN(Cc2ncc[nH]2)CC1 (stereo not drawn) | -5.37
O=C(c1ccccc1)C1CCN(Cc2cc3c(cc2O)CCC3)CC1 | -0.05327
Cc1cc(C(N)=O)c(N2C[C@@H](C)[C@@](C)(O)C2)nc1C | 22.93
O=C(O)C(F)(F)F.O=C(O)C(F)(F)F.O=C(c1c[nH]cn1)N1CCC(F)(F)C2(CCN(c3ccccn3)C2)C1 (stereo not drawn) | -30.77
COc1ccc(C(=O)N2C[C@@H](O)[C@H](NCc3ncccc3C)C2)cc1 | -29.93
CCN(C(=O)Nc1nccs1)C(C)c1cccc(O)c1 (stereo not drawn) | 15.08
N#Cc1cccc(NC2CC(=O)N(CCCc3ccccc3)C2)n1 (stereo not drawn) | 2.519
CCC[C@H]1CN(Cc2cc(C#N)n(C)c2C)C[C@@H]1N(C)C | -2.659
COc1cccc(-c2noc(C3CCN(CC4CCCCC4)C3)n2)c1.Cl (stereo not drawn) | 22.84
O=C(O)C(F)(F)F.[H][C@]12CCCC(OCc3cccnc3)[C@@]1([H])CN(C(=O)COC)C2 (stereo partly drawn) | 22.04
CC(=O)Nc1nc(C(=O)NC(C)c2ccc(F)c(F)c2)cs1 (stereo not drawn) | 12.21
CN1CCCC1c1nnc2n1CCN(S(=O)(=O)c1ccccc1Cl)CC2 (stereo not drawn) | 10.21
O=C(O)C(F)(F)F.O=C(c1cc[nH]n1)N1CCC(F)(F)C2(CCN(c3ccccn3)C2)C1 (stereo not drawn) | -6.259
COc1cc(NC(=O)NC2CC2)ccc1N1CCOC1=O | 20.88
O=C(Cn1ncc(N2CCCC2)cc1=O)Nc1ccc2nccnc2c1 | -12.64
Cn1cnnc1C1CCN(c2cncc(-n3cccn3)n2)CC1 | 23.61
CC(C)n1ccnc1Cn1ccc2ncccc2c1=O | -7.66
Cc1nc(NC2CCCCC2)cc(C2CCCNC2)n1.Cl (stereo not drawn) | -33.64
CCCc1cc(C(=O)NCCC2=CCCCC2)[nH]n1 | 32.79
CC1CN(C)CCN1C(=O)c1cnn(-c2ccc(Cl)cc2)c1 (stereo not drawn) | 4.474
CC(C)[C@H](N)C(=O)N1CCSc2ccccc2C1.Cl | 15.34
CS(=O)(=O)NC(=O)c1nnn(-c2ccccc2)c1C1CC1 | 29.1
CCOCC(=O)N1CCc2c(CN(C)C)nn(C(C)C)c2C1.O=C(O)C(F)(F)F | 19.89
CC(C)CCNC(=O)c1ccc2c(=O)n(-c3ccccc3)cnc2c1 | 20.66
CCOC(=O)N(C)C1CCN(Cc2cnc3ccccn23)CC1 | 11.61
COc1ccc(CCN2CCOC(Cn3nc(C)nc3C)C2)cc1 (stereo not drawn) | -2.384
CNC(=O)C1Cn2ccnc2C2(CCN(Cc3c(C)noc3C)CC2)O1 (stereo not drawn) | 0.8487
CO[C@H]1CCN(c2nnc(C)s2)C[C@@H]1Cc1cccc(C)c1.O=C(O)C(F)(F)F | 15.98
Cc1[nH]ncc1CCCNC(=O)N1CCC(CC(N)=O)CC1 | 21.42
COCC(C)N(C)C(=O)c1nc(S(C)(=O)=O)n2ccccc12 (stereo not drawn) | 4.803
O=C(O)C(F)(F)F.O=C1CC(c2ccncc2)C2(CCN(C(=O)c3cccs3)CC2)N1 (stereo not drawn) | -78.13
CN(Cc1ccccc1NCc1cccnc1)C(=O)c1cccs1 | 34.99
Cc1nn(C)c2c(NCCn3cccn3)ncnc12 | 9.339
CCNC(=O)CN1CCc2c(Br)ccc(F)c2C1 | 5.538
CC(=O)Nc1cccc(OCCNC(=O)N(C)Cc2ccco2)c1 | 2.051

Repeated from the top, 5 entries:

SMILES	Percent Effect
CC(C)c1nc(C2CCCN2CCc2ccccn2)no1 (stereo not drawn)	-3.374
Cc1cc(C(=O)Nc2ccc3c(ccn3CCN3CCOCC3)c2)on1	-3.056
CC(C)Nc1nc(O)cc(C2CC(=O)N(Cc3ccccn3)C2)n1.Cl (stereo not drawn)	19.17
O=c1c(CN2CCSCC2)coc(O)c1CN1CCCC1	-4.031
COc1cccc([C@@H]2CCN(Cc3cccc(C)n3)C[C@H]2O)c1	-6.615

The values are deposited in ChEMBL (CHEMBL3988442, “University of Dundee, Small-Polar-MMV Screening Library” (2021)).